Laboratory results taken from the supplement of paper PMC12819154, “High-throughput peptide-centric local stability assay extends protein–ligand identification to membrane proteins, tissues and bacteria” (Nature Structural & Molecular Biology, 2025).
Some of the results follow. Small differences around the control level are noise.

Sequences of proteins named here, by UniProt entry; tags and fusion partners are left off. A change or cut given only in a name is not applied to a line headed by its entry.
UniProt Q9WV30: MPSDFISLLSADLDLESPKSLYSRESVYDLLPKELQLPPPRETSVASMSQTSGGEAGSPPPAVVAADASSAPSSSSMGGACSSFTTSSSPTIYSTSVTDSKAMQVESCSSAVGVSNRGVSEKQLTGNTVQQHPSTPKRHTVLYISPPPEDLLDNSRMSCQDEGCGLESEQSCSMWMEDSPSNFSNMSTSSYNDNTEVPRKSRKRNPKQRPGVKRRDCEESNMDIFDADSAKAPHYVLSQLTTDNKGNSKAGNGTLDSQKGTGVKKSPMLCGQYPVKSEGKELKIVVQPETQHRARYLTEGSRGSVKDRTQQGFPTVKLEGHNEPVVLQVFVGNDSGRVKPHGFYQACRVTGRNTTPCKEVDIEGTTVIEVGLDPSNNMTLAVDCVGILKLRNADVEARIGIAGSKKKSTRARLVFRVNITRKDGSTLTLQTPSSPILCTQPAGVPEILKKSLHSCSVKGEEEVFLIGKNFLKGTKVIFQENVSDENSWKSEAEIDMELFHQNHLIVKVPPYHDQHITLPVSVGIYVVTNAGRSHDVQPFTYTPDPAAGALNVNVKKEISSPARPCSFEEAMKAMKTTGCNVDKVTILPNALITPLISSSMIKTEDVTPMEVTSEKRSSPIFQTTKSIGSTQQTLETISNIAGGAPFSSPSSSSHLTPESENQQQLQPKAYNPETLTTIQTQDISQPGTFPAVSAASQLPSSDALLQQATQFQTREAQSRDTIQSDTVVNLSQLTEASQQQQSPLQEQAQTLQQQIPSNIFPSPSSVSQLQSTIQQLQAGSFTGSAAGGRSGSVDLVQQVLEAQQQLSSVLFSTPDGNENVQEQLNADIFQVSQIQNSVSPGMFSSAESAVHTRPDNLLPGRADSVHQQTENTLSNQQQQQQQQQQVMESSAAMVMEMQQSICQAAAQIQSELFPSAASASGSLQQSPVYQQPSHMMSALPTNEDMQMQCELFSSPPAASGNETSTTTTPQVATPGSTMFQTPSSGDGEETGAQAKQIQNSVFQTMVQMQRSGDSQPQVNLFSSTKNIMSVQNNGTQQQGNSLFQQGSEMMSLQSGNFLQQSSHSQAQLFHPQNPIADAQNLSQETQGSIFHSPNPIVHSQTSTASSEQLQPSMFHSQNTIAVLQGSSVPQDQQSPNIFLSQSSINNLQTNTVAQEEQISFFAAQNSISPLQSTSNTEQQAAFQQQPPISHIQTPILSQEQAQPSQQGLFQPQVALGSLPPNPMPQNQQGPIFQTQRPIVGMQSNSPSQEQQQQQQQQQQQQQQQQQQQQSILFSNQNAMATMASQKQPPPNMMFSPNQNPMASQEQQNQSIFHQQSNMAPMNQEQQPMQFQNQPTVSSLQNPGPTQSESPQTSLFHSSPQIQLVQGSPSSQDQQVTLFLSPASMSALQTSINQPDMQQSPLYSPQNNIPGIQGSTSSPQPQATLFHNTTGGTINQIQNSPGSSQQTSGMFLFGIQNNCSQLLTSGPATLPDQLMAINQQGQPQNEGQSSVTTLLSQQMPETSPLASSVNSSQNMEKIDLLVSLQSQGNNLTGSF
UniProt Q9QYP6, whole entry: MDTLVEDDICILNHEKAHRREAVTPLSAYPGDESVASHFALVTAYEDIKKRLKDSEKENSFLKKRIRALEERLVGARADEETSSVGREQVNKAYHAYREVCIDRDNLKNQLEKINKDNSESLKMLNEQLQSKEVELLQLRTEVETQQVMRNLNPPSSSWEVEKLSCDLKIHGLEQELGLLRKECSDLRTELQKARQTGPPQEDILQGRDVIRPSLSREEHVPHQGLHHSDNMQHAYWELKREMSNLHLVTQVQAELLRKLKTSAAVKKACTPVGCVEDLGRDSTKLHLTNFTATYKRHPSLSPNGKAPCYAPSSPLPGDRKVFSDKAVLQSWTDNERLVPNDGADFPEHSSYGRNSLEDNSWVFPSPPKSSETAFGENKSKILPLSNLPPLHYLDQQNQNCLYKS
UniProt Q9QYG0: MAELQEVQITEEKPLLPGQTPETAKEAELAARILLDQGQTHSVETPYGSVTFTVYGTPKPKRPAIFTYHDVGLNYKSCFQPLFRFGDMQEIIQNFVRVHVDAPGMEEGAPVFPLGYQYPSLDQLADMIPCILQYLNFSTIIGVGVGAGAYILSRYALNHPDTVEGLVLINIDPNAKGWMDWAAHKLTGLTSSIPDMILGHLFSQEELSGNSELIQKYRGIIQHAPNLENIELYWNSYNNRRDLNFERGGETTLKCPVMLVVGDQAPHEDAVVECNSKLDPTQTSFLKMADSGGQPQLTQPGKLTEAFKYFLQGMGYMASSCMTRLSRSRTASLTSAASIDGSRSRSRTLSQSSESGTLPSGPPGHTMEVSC
UniProt Q9QZH6: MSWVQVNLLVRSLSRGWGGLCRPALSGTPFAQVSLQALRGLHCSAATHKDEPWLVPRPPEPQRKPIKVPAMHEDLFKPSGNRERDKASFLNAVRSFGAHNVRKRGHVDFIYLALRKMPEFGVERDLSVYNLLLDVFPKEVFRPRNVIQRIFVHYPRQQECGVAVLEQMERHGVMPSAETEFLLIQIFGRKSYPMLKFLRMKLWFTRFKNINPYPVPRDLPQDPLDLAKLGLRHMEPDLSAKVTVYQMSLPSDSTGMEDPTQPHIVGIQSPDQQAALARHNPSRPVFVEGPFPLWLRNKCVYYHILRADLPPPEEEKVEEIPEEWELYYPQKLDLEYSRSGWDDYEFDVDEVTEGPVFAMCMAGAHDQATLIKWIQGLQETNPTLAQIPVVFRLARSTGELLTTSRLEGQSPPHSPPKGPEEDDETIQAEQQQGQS
UniProt Q9QYR9: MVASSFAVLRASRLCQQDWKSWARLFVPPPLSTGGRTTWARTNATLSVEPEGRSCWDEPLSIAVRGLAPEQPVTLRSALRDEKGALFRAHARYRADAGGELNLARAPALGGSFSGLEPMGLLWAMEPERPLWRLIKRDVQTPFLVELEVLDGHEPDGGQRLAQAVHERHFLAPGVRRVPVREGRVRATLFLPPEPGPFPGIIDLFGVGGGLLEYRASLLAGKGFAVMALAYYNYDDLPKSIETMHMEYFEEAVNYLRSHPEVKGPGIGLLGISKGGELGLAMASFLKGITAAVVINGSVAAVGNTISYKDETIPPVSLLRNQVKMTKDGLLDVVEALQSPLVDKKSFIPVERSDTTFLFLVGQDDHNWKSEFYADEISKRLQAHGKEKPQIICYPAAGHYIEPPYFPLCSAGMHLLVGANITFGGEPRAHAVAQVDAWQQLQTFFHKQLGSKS
UniProt Q9QY06: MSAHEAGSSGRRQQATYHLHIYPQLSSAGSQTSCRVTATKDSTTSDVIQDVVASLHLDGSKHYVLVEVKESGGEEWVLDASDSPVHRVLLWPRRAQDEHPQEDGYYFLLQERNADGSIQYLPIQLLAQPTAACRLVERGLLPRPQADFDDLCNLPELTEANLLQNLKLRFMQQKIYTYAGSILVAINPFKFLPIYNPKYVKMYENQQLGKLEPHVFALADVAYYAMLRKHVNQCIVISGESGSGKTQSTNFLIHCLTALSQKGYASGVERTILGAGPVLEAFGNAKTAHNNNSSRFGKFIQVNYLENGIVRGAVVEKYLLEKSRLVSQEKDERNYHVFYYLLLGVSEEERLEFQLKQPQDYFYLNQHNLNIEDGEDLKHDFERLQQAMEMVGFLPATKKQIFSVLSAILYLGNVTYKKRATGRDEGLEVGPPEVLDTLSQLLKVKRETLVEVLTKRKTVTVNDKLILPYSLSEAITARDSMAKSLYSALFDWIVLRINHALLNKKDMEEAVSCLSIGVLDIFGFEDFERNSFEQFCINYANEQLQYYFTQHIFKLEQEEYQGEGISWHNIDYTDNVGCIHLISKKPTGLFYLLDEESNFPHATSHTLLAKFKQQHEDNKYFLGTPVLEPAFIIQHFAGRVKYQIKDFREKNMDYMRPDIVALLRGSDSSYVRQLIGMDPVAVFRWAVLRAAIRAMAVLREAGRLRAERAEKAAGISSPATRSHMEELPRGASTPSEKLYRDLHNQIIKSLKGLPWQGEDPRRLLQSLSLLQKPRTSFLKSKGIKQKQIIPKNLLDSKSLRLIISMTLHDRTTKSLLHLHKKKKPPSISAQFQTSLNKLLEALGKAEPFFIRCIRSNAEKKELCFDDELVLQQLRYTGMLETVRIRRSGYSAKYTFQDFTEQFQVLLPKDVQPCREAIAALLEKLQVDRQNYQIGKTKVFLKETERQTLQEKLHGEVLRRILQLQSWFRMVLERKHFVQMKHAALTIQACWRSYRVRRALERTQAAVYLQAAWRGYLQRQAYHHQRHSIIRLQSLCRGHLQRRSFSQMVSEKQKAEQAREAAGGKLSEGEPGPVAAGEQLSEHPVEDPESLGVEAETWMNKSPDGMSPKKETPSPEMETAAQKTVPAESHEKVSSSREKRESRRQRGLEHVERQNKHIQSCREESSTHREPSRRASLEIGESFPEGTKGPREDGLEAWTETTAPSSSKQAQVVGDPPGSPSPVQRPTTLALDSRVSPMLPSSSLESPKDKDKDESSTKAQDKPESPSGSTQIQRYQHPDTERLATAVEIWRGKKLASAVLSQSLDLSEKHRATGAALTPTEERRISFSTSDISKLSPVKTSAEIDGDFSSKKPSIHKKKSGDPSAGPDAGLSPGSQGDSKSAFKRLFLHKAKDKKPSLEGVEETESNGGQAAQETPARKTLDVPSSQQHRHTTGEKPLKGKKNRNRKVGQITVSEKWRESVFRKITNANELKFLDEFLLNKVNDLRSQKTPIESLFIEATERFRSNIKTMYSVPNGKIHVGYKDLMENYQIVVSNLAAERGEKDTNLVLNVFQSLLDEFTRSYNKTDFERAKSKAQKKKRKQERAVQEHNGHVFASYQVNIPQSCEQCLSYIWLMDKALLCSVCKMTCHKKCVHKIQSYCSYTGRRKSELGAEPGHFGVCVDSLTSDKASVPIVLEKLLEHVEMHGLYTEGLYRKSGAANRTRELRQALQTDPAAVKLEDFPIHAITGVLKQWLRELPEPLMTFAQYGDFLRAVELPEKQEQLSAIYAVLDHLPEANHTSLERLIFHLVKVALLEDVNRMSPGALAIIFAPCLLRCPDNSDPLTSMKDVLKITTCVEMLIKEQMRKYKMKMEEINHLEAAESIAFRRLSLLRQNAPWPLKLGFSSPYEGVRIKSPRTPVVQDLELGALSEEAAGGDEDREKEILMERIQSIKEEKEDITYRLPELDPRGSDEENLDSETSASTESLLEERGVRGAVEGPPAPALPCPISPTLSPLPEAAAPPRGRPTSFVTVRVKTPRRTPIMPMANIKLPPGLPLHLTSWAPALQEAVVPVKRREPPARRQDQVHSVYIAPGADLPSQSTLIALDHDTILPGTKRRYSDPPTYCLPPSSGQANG
UniProt Q9WVA2: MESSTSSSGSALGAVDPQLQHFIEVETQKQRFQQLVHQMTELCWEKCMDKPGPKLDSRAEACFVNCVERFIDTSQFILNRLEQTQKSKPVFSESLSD
UniProt Q9R0N0: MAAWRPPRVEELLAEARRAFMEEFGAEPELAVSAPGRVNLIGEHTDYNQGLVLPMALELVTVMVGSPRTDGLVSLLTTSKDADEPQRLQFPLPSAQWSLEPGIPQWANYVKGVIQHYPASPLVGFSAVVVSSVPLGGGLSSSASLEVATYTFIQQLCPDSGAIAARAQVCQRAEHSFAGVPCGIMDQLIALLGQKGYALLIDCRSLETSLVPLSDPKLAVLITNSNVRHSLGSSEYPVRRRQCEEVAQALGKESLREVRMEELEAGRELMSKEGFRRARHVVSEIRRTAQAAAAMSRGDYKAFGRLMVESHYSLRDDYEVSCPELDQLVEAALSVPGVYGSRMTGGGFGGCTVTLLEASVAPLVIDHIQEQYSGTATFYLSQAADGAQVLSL
UniProt Q9R0L7: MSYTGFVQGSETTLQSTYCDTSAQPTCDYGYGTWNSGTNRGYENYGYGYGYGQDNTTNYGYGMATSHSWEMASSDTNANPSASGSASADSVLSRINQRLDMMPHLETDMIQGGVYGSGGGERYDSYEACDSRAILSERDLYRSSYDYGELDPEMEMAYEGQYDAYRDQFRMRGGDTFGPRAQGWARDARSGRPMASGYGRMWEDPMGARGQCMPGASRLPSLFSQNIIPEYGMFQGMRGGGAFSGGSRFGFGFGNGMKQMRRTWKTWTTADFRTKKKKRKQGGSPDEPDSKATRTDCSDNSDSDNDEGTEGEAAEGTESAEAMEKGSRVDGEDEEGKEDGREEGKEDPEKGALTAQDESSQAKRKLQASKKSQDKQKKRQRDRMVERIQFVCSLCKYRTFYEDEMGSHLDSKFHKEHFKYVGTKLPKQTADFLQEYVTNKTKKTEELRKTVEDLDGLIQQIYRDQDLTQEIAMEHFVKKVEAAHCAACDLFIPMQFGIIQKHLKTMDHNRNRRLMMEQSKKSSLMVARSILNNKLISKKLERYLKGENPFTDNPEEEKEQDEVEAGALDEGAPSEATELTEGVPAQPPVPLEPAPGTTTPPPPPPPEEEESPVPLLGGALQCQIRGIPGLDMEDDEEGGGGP

Each target was assayed with CN[C@@H]1C[C@H]2O[C@@](C)([C@@H]1OC)n1c3ccccc3c3c4c(c5c6ccccc6n2c5c31)C(=O)NC4 [staurosporine] (assay: log2 fold change of tryptic peptide abundance, ligand vs vehicle (limited proteolysis) (log2 ratio); higher = more trypsin-susceptible (destabilized)). Details: ligand concentration: 20 uM; sample: mouse liver crude lysate; replicate design: treated separately.

Row | Target | log2 fold change
1 | UniProt Q9WV30 (peptide sequence: EISSPARPCSFEEAMK, peptide start residue: 557) | 0.268
2 | UniProt Q9QYP6 (peptide sequence: LHLTNFTATYK, peptide start residue: 286) | 0.455
3 | UniProt Q9QYG0 (peptide sequence: SCFQPLFR, peptide start residue: 77) | 0.0662
4 | UniProt Q9QZH6 (peptide sequence: KMPEFGVER, peptide start residue: 116) | 0.338
5 | UniProt Q9QYR9 (peptide sequence: LAQAVHER, peptide start residue: 161) | -0.421
6 | UniProt Q9QY06 (peptide sequence: VGQITVSEK, peptide start residue: 1447) | -0.28
7 | UniProt Q9WV86 (peptide sequence: IEGLTPEEIR, peptide start residue: 437) | -0.415
8 | UniProt Q9WVA2 (peptide sequence: FIDTSQFILNR, peptide start residue: 70) | -0.0799
9 | UniProt Q9R0N0 (peptide sequence: AAWRPPRVEELLAEAR, peptide start residue: 2) | -0.273
10 | UniProt Q9R0L7 (peptide sequence: GALTAQDESSQAKR, peptide start residue: 351) | -0.637
